Some of these results come from one statement about several compounds together.
Molecular target: T1, FLT3-ITD (Homo sapiens, UniProt P36888)
T1 sequence (P36888 with tags, fused parts or gaps INS600HVDFREYEYD): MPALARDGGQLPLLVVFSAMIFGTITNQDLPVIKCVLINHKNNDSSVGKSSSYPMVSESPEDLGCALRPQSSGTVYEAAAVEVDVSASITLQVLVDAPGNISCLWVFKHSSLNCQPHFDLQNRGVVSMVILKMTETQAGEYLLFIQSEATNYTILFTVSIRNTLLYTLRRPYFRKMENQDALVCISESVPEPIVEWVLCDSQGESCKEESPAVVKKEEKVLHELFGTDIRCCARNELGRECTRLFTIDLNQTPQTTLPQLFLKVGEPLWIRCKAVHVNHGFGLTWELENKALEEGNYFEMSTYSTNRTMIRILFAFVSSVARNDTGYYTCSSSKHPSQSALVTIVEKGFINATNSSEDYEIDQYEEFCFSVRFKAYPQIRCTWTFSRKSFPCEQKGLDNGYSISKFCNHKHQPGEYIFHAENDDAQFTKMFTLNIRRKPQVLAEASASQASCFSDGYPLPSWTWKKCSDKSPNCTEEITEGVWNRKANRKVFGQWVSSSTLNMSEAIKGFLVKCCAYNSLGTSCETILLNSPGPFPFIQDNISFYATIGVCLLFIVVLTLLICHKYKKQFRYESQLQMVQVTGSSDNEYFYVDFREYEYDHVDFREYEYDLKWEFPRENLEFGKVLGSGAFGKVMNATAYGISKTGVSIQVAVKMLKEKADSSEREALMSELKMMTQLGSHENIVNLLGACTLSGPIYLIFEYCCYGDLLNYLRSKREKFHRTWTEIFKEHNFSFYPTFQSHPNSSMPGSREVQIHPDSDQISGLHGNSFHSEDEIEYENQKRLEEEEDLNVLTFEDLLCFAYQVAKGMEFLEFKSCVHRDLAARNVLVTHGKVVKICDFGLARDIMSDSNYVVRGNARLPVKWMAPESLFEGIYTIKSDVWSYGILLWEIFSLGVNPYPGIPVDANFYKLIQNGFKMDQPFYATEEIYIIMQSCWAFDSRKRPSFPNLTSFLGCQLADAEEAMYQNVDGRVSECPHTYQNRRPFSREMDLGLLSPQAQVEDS
Test: Flt3 assays described in Example 3 (cell-based assays of Flt3-ITD kinase activity in MV-4-11 cells)
Settings: read-out: IC50 in the Flt3 assays described above in Example 3

Structure (SMILES)	IC50 [nM]
Fc1nc(NCc2ccc(Cl)cc2)ccc1Cc1c[nH]c2ncc(Cl)cc12 [Compound P-0132, (4-Chloro-benzyl)-[5-(5-chloro-1H-pyrrolo[2,3-b]pyridin-3-ylmethyl)-6-fluoro-pyridin-2-yl]-amine]	< 1000
Cc1nn(Cc2ccc(C(F)(F)F)o2)c(C)c1Cc1c[nH]c2ncccc12 [Compound P-0138, 3-[3,5-Dimethyl-1-(5-trifluoromethyl-furan-2-ylmethyl)-1H-pyrazol-4-ylmethyl]-1H-pyrrolo[2,3-b]pyridine]	< 1000
Cc1nc(-c2ccc(C(F)(F)F)cc2)sc1Cn1nc(C)c(Cc2c[nH]c3ncccc23)c1C [Compound P-0143, 3-{3,5-Dimethyl-1-[4-methyl-2-(4-trifluoromethyl-phenyl)-thiazol-5-ylmethyl]-1H-pyrazol-4-ylmethyl}-1H-pyrrolo[2,3-b]pyridine]	< 1000
Cc1nc(-c2ccccc2)sc1Cn1nc(C)c(Cc2c[nH]c3ncccc23)c1C [Compound P-0144, 3-[3,5-Dimethyl-1-(4-methyl-2-phenyl-thiazol-5-ylmethyl)-1H-pyrazol-4-ylmethyl]-1H-pyrrolo[2,3-b]pyridine]	< 1000
COc1ccccc1CNC(=O)n1nc(C)c(Cc2c[nH]c3ncccc23)c1C [Compound P-0145, 3,5-Dimethyl-4-(1H-pyrrolo[2,3-b]pyridin-3-ylmethyl)-pyrazole-1-carboxylic acid 2-methoxy-benzylamide]	< 1000
Cc1nn(C(=O)NCCc2ccccc2F)c(C)c1Cc1c[nH]c2ncccc12 [Compound P-0148, 3,5-Dimethyl-4-(1H-pyrrolo[2,3-b]pyridin-3-ylmethyl)-pyrazole-1-carboxylic acid [2-(2-fluoro-phenyl)-ethyl]-amide]	< 1000
Fc1ccc(CNc2nc(Cl)c(Cc3c[nH]c4ncccc34)s2)cc1 [Compound P-0156, [4-Chloro-5-(1H-pyrrolo[2,3-b]pyridin-3-ylmethyl)-thiazol-2-yl]-(4-fluoro-benzyl)-amine]	< 1000
Cc1nn(C(=O)NCCc2ccc(F)cc2)c(C)c1Cc1c[nH]c2ncc(Cl)cc12 [Compound P-0157, 4-(5-Chloro-1H-pyrrolo[2,3-b]pyridin-3-ylmethyl)-3,5-dimethyl-pyrazole-1-carboxylic acid [2-(4-fluoro-phenyl)-ethyl]-amide]	< 1000
Cc1nn(C(=O)NCc2ccc(Cl)cc2)c(C)c1Cc1c[nH]c2ncc(Cl)cc12 [Compound P-0159, 4-(5-Chloro-1H-pyrrolo[2,3-b]pyridin-3-ylmethyl)-3,5-dimethyl-pyrazole-1-carboxylic acid 4-chloro-benzylamide]	< 1000
Clc1ccc(CNc2ccc(Cc3c[nH]c4ncccc34)c(Cl)n2)cc1 [Compound P-0161, (4-Chloro-benzyl)-[6-chloro-5-(1H-pyrrolo[2,3-b]pyridin-3-ylmethyl)-pyridin-2-yl]-amine]	< 1000
Cc1nc(NCc2ccc(F)cc2)sc1Cc1c[nH]c2ncccc12 [Compound P-0163, (4-Fluoro-benzyl)-[4-methyl-5-(1H-pyrrolo[2,3-b]pyridin-3-ylmethyl)-thiazol-2-yl]-amine]	< 1000
Cn1nc(NCc2ccc(F)cc2)cc1Cc1c[nH]c2ncc(Cl)cc12 [Compound P-0170, [5-(5-Chloro-1H-pyrrolo[2,3-b]pyridin-3-ylmethyl)-1-methyl-1H-pyrazol-3-yl]-(4-fluoro-benzyl)-amine]	< 1000
Cc1cccc(CNc2nc(Cl)c(Cc3c[nH]c4ncccc34)s2)n1 [Compound P-0171, [4-Chloro-5-(1H-pyrrolo[2,3-b]pyridin-3-ylmethyl)-thiazol-2-yl]-(6-methyl-pyridin-2-ylmethyl)-amine]	< 1000
FC(F)(F)c1ccc(CNc2nc(Cl)c(Cc3c[nH]c4ncccc34)s2)cn1 [Compound P-0173, [4-Chloro-5-(1H-pyrrolo[2,3-b]pyridin-3-ylmethyl)-thiazol-2-yl]-(6-trifluoromethyl-pyridin-3-ylmethyl)-amine]	< 1000
FC(F)(F)c1ccc(CNc2ccc(Cc3c[nH]c4ncccc34)c(Cl)n2)cn1 [Compound P-0174, [6-Chloro-5-(1H-pyrrolo[2,3-b]pyridin-3-ylmethyl)-pyridin-2-yl]-(6-trifluoromethyl-pyridin-3-ylmethyl)-amine]	< 1000
FC(F)(F)c1ccc(CNc2ccc(Cc3c[nH]c4ncc(Cl)cc34)c(Cl)n2)cn1 [Compound P-0176, [6-Chloro-5-(5-chloro-1H-pyrrolo[2,3-b]pyridin-3-ylmethyl)-pyridin-2-yl]-(6-trifluoromethyl-pyridin-3-ylmethyl)-amine]	< 1000
O=C(c1cnc(NCc2ccc(F)cc2)s1)c1c[nH]c2ncccc12 [Compound P-0177, [2-(4-Fluoro-benzylamino)-thiazol-5-yl]-(1H-pyrrolo[2,3-b]pyridin-3-yl)-methanone]	< 1000
Cn1cc(-c2cnc3[nH]cc(Cc4ccc(NCc5ccc(C(F)(F)F)nc5)nc4Cl)c3c2)cn1 [Compound P-0179, {6-Chloro-5-[5-(1-methyl-1H-pyrazol-4-yl)-1H-pyrrolo[2,3-b]pyridin-3-ylmethyl]-pyridin-2-yl}-(6-trifluoromethyl-pyridin-3-ylmethyl)-amine]	< 1000
Cn1cc(-c2cnc3[nH]cc(Cc4cc(NCc5ccc(F)cc5)nn4C)c3c2)cn1 [Compound P-0180, (4-Fluoro-benzyl)-{1-methyl-5-[5-(1-methyl-1H-pyrazol-4-yl)-1H-pyrrolo[2,3-b]pyridin-3-ylmethyl]-1H-pyrazol-3-yl}-amine]	< 1000
FC(F)(F)c1ccc(CNc2ccc(Cc3c[nH]c4ncccc34)cn2)cn1 [Compound P-0182, [5-(1H-Pyrrolo[2,3-b]pyridin-3-ylmethyl)-pyridin-2-yl]-(6-trifluoromethyl-pyridin-3-ylmethyl)-amine]	< 1000
Fc1nc(NCc2ccc(C(F)(F)F)nc2)ccc1Cc1c[nH]c2ncc(Cl)cc12 [Compound P-0186, [5-(5-Chloro-1H-pyrrolo[2,3-b]pyridin-3-ylmethyl)-6-fluoro-pyridin-2-yl]-(6-trifluoromethyl-pyridin-3-ylmethyl)-amine]	< 1000
COc1cnc2[nH]cc(Cc3ccc(NCc4ccc(C(F)(F)F)nc4)nc3F)c2c1 [Compound P-0187, [6-Fluoro-5-(5-methoxy-1H-pyrrolo[2,3-b]pyridin-3-ylmethyl)-pyridin-2-yl]-(6-trifluoromethyl-pyridin-3-ylmethyl)-amine]	< 1000
Fc1nc(NCc2ccc(C(F)(F)F)nc2)ccc1Cc1c[nH]c2ncccc12 [Compound P-0188, [6-Fluoro-5-(1H-pyrrolo[2,3-b]pyridin-3-ylmethyl)-pyridin-2-yl]-(6-trifluoromethyl-pyridin-3-ylmethyl)-amine]	< 1000
COc1ccc(CNc2nc(Cl)c(Cc3c[nH]c4ncc(Cl)cc34)s2)cn1 [Compound P-0190, [4-Chloro-5-(5-chloro-1H-pyrrolo[2,3-b]pyridin-3-ylmethyl)-thiazol-2-yl]-(6-methoxy-pyridin-3-ylmethyl)-amine]	< 1000
Clc1cnc2[nH]cc(Cc3sc(NCc4ccccc4)nc3Cl)c2c1 [Compound P-0192, Benzyl-[4-chloro-5-(5-chloro-1H-pyrrolo[2,3-b]pyridin-3-ylmethyl)-thiazol-2-yl]-amine]	< 1000
COc1cccc(CNc2nc(Cl)c(Cc3c[nH]c4ncc(Cl)cc34)s2)c1 [Compound P-0193, [4-Chloro-5-(5-chloro-1H-pyrrolo[2,3-b]pyridin-3-ylmethyl)-thiazol-2-yl]-(3-methoxy-benzyl)-amine]	< 1000
Clc1ccc(CNc2nc(Cl)c(Cc3c[nH]c4ncc(Cl)cc34)s2)cc1 [Compound P-0194, (4-Chloro-benzyl)-[4-chloro-5-(5-chloro-1H-pyrrolo[2,3-b]pyridin-3-ylmethyl)-thiazol-2-yl]-amine]	< 1000
Fc1ccc(CNc2nc(Cl)c(Cc3c[nH]c4ncc(Cl)cc34)s2)cc1 [Compound P-0195, [4-Chloro-5-(5-chloro-1H-pyrrolo[2,3-b]pyridin-3-ylmethyl)-thiazol-2-yl]-(4-fluoro-benzyl)-amine]	< 1000
CCc1nc(C)c(CNc2nc(Cl)c(Cc3c[nH]c4ncc(Cl)cc34)s2)[nH]1 [Compound P-0197, [4-Chloro-5-(5-chloro-1H-pyrrolo[2,3-b]pyridin-3-ylmethyl)-thiazol-2-yl]-(2-ethyl-5-methyl-3H-imidazol-4-ylmethyl)-amine]	< 1000
COc1cccc(CNc2nc(Cl)c(Cc3c[nH]c4ncc(Cl)cc34)s2)n1 [Compound P-0199, [4-Chloro-5-(5-chloro-1H-pyrrolo[2,3-b]pyridin-3-ylmethyl)-thiazol-2-yl]-(6-methoxy-pyridin-2-ylmethyl)-amine]	< 1000

Reference: US9550768B2, “Kinase modulation and indications therefor” (PLEXXIKON INC., priority 2011, dated 2017)
